Results as given in patent US11572475B2, “Carbocyanines for G-quadruplex DNA stabilization and telomerase inhibition” (GEORGIA STATE UNIVERSITY RESEARCH FOUNDATION, INC., priority 2011, dated 2023).

Key:
[1] = system: c-myc; experiment: Isothermal calorimetry, c-myc; type: binding; conditions: ITC, 25° C.
Description: (§1) DNA binding is dependent on enthalpy and entropy, components of the Gibbs free energy. Isothermal calorimetry measures the heat absorbed (endothermic binding) or released (exothermic binding) in binding at the μcalorie level. By examining the thermodynamics of different compounds, compounds can be analyzed to determine what factors favor quadruplex over duplex DNA binding. Enthalpy and binding constants are determined from measuring the heat change when compound is injected into a DNA solution, and the equations ΔG=ΔH−TΔS ΔG=−RT ln K are used to calculate entropy and Gibbs free energy.
(§2) Solutions of compound (0.2 mM) were injected 30 times into solutions of DNA (0.02 mM) on a VPC-ITC. All solutions were degasses at 25° C. for 15 minutes. TRIS/K^+ buffer was used in the reference cell. The injections were monitored at 25° C. with a reference power of 1 μcal/sec, an initial delay of 300 sec, and a stirring speed of 290. The first injection was 2 μL for 4 sec, with a spacing of 300 sec, and a filter period of 1 sec. The remaining 29 injections were 10 μL volume for a duration of 20 sec, with a spacing of 300 sec, and a filter period of 1 sec. The data was analyzed by VPViewer 2000 software.
(§3) Isothermal calorimetry (ITC) experiments were performed to test the SPR and fluorescence preference in binding c-myc over hTelo. ITC is known to under-estimate binding constants for strong binding compounds in comparison with other techniques such as SPR as shown in Tables 4 and 5 for MH-5 and A-C8, respectively.

[2] = system: hTelo; experiment: Isothermal calorimetry, hTelo; type: binding, human; conditions: ITC, 25° C.
Description: as §1, §2, §3

| Compound | Stoichiometry, c-myc [1] | ΔG (cal/mol), c-myc [1] | ΔH (cal/mol), c-myc [1] | ΔS cal/(mol C. °), c-myc [1] | Stoichiometry, hTelo [2] | ΔG (cal/mol), hTelo [2] | ΔH (cal/mol), hTelo [2] | ΔS (cal/mol C. °), hTelo [2] |
| --- | --- | --- | --- | --- | --- | --- | --- | --- |
| CC1(C)C(/C=C/C(Br)=C/C=C2\N(CCC[N+](C)(C)C)c3ccccc3C2(C)C)=[N+](CCC[N+](C)(C)C)c2ccccc21 [A-C8 (43)] | 1.22 ± 0.01 | -8045.32 cal/mol | -2100 ± 20 cal/mol | 20 cal/(mol C. °) | 1.02 ± 0.02 | -6466.94 cal/mol | -6100 ± 200 cal/mol | 1.15 cal/mol C. ° |
| CC1(C)C(/C=C/C=C2/N(CCC[N+](C)(C)C)c3ccc(Br)cc3C2(C)C)=[N+](CCC[N+](C)(C)C)c2ccc(Br)cc21 [MH5 (28)] | 1.11 ± 0.01 | -8278.85 cal/mol | -3190 ± 40 cal/mol | 17.1 cal/(mol C. °) | – | – | – | – |
